This is a selection; strong and weak results do not stand in their true shares. The source made the active and inactive calls. Calls come from the whole dose curve; as a rule, active = well fitted activation curve with a large enough effect; inconclusive = small, poorly fitted or top-dose-only effect; inactive = flat fitted curve, though single readings scatter.
Assay: qHTS of Nrf2 Activators; note: nearly all actives have a fitted effect of over 65% in size
Details: AREc32 ARE-luciferase reporter (MCF7-derived line), luminescence, 24 h
From the text: Many diseases have some form of oxidative stress injury and ties to inflammation, causing a host of problems for the patient. The antioxidant response element (ARE) plays an important role in alleviating the harmful effects of oxidative stress. The antioxidant response element (ARE) is a transcriptional regulatory element involved in the activation of genes coding for a number of antioxidant proteins and detoxifying enzymes. These enzymes work in concert to protect tissues from oxidative insults and chemical toxicities in human hepatocytes and immune cells. The protective effects of ARE activation are primarily triggered through Nrf2 (NF-E2-related factor) binding to and activating AREs. It is known that Nrf2 controls the production of over 250 antioxidant and detoxification proteins (Hu et al., 2006), thereby protecting tissues by increasing cellular antioxidant content and suppressing inflammatory signaling pathways. The transcription factor Nrf2 is a central link between oxidative chemicals, such as phenolic antioxidants and electrophilic compounds, and the activation of ARE. […]
5 uL of 1000 cells/well of AREc32_Fluc cells are seeded into 1536-well plate in OPTI-MEM medium with 5% FBS. […] After the addition of 2.5 uL of Steady-Glo. the plates are kept at RT for 30 min, before they are read on the ViewLux.
Potency is the fitted concentration of half-maximal effect.

Row | SMILES | Potency
1 | O=c1ccc2ccc(OCc3ccccc3)cc2o1 | active: 12.6 µM

— PubChem BioAssay AID624171 (National Center for Advancing Translational Sciences (NCATS), 2012)
